Data taken from paper PMC6599020.
No constants are given. Whether binding was seen depends on the method and setting. In cells and extracts the contact can be indirect. Some results given as binding are weak or reduced against the parent protein; the word gives no strength.

Protein sequences, listed by entry. Tags and fused reporters are not part of them.
UniProt P11142: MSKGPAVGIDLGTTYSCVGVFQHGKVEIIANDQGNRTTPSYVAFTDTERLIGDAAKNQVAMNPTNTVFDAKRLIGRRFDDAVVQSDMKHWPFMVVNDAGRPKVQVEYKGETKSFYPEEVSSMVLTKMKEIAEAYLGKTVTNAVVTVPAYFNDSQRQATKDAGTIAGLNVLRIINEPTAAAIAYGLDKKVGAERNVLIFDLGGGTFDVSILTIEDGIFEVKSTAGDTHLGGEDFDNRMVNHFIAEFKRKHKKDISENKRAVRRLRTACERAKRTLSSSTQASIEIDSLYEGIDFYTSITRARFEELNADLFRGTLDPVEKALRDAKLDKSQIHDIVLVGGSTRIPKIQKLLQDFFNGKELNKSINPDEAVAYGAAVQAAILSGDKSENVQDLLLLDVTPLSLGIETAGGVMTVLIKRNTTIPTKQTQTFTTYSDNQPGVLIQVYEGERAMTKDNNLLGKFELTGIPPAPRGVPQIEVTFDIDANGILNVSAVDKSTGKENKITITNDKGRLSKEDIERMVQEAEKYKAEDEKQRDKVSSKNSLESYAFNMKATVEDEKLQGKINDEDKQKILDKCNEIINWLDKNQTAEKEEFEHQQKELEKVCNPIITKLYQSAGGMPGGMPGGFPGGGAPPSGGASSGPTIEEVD

Columns and labels:
[1] = target: T1, retinoblastoma protein (Rb) (human (endogenous in 293FT)) (UniProt P06400); assay: co-IP; 3×-FLAG-ΔNLS-DEDD overexpressed in 293FT cells; cells treated with 1 ng/mL EGF and 1 µM MG-132 for 6 h; M2 lysis buffer (50 mM Tris-HCl pH 7.4, 150 mM NaCl, 1% Triton X-100, 0.5 mM EDTA); lysate incubated with Rb (4H1) antibody overnight, protein A/G agarose 2 h at 4 °C
T1 sequence: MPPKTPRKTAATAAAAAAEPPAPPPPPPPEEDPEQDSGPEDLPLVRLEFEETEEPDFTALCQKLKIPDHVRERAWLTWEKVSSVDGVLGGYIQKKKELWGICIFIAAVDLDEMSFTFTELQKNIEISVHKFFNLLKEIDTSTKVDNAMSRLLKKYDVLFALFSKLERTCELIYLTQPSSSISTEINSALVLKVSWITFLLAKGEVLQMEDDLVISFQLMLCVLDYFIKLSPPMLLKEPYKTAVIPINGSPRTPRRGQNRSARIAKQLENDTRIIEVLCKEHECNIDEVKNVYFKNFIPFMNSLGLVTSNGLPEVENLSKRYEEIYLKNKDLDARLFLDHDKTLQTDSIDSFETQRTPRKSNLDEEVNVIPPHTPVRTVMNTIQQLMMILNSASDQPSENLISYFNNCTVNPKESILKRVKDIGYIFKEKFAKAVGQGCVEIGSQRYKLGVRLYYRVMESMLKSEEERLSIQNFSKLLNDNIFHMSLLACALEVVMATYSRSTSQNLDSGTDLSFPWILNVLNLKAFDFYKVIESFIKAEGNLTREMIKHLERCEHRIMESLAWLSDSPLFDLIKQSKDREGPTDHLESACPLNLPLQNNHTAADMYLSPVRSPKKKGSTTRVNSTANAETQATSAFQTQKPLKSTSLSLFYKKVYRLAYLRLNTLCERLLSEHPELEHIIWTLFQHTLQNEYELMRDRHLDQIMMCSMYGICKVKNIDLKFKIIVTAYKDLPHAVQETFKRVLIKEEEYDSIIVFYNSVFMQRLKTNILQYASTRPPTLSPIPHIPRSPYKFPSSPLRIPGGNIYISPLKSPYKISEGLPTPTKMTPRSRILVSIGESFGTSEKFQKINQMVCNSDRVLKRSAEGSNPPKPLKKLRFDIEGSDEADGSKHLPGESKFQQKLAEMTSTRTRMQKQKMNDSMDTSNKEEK

[2] = target: 3×-FLAG-ΔNLS-DEDD (cytosolic Death Effector Domain-containing DNA-binding protein with substitution mutations in all three nuclear localization sequences) (human) (UniProt O75618); assay: co-IP; 3×-FLAG-DEL-NLS-DEDD plasmid overexpressed in 293FT cells; also in TNBC cells (Supplementary Fig. 6H)

Substance | binding [1] | binding [2]
3×-FLAG-ΔNLS-DEDD (cytosolic Death Effector Domain-containing DNA-binding protein with substitution mutations in all three nuclear localization sequences) (from UniProt O75618-1 1-318) | binds | –
heat-shock cognate 71 kDa protein (HSC70) (from UniProt P11142 1-646) | – | binds
